# Test system: EET formation in rat renal microsomes
# Assay: EET formation in rat renal microsomes ([3H]-AA, Example 3)
# Assay type: biochemical
# Conditions: SHR rat renal microsomes
# Experimental: All procedure was carried out at 4° C. Renal cortex was pooled from twenty male SHR rats (6 weeks of age). They were homogenized extensively in lysis buffer (20 mM HEPES, pH 7.4, 1 mM EDTA, 100 μM p-(amidinophenyl)metanesulfonyl fluoride and 250 mM sucrose), and centrifuged at 16,000×g for 10 min. Supernatant was further centrifuged at 16,000×g for 30 min. Soluble fraction was collected and centrifuged at 200,000×g for 30 min. The resulting pellet was suspended in 50 mM MOPS buffer.
# The reaction was terminated by adding formic acid and acetonitrile to a final concentration of 1% and 50%, respectively.
smiles,measurement,setting,value
Clc1ccc(COC(Cn2ccnc2)c2ccc(Cl)cc2Cl)c(Cl)c1 (centres unmarked) [miconazole],"IC50, formation of EETs",,approximately 0.5 μg/ml
same,IC50,"read-out: IC50, formation of EETs",~1000 nM
